Test results as given in paper PMC8626462.
No constants are given. Whether binding was seen depends on the method and setting. In cells and extracts the contact can be indirect. These calls come from enrichment with a bait or labelling near it, and not all partners need be listed.

Protein sequences, listed by entry. Tags and fused reporters are not part of them.
UniProt P51531: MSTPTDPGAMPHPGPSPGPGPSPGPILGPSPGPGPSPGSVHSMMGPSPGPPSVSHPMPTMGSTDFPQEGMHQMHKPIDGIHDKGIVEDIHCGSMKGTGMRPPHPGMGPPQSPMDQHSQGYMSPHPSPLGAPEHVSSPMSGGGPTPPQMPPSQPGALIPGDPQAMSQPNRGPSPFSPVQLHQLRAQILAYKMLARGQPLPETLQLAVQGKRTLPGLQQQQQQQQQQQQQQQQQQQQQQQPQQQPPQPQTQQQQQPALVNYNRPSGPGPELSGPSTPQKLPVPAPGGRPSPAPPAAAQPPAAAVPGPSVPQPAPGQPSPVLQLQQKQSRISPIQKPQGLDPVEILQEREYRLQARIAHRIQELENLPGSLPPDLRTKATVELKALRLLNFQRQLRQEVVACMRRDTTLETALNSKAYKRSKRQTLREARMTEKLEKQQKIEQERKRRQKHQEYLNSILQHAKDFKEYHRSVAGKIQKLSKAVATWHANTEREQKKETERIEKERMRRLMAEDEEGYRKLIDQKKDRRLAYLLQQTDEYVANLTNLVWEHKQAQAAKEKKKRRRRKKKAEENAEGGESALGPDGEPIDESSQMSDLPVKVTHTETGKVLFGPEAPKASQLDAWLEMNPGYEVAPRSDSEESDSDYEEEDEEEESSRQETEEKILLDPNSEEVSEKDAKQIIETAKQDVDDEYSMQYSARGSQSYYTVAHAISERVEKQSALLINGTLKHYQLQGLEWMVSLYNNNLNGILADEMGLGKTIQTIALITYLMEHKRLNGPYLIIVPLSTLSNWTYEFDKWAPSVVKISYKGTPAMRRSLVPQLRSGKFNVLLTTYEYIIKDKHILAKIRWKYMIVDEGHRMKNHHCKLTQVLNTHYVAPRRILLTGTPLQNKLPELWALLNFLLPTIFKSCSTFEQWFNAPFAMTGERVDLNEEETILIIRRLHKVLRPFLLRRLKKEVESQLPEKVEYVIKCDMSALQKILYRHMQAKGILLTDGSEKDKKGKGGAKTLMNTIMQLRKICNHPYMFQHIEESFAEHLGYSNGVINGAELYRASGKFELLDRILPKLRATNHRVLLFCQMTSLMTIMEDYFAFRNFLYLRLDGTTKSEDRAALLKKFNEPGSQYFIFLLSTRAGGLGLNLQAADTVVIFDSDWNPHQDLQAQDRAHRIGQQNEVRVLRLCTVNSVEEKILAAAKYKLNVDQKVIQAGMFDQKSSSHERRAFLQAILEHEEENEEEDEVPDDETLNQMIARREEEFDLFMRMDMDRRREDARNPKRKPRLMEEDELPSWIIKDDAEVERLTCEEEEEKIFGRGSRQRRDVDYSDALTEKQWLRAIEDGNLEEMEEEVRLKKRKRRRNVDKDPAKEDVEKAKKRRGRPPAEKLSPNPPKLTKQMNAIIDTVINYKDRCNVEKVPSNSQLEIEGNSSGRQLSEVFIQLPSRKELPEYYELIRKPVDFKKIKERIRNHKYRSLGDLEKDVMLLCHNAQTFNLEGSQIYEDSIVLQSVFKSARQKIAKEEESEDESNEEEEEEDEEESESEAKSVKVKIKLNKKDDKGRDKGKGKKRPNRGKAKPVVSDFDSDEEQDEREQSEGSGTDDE
UniProt Q9NPI1: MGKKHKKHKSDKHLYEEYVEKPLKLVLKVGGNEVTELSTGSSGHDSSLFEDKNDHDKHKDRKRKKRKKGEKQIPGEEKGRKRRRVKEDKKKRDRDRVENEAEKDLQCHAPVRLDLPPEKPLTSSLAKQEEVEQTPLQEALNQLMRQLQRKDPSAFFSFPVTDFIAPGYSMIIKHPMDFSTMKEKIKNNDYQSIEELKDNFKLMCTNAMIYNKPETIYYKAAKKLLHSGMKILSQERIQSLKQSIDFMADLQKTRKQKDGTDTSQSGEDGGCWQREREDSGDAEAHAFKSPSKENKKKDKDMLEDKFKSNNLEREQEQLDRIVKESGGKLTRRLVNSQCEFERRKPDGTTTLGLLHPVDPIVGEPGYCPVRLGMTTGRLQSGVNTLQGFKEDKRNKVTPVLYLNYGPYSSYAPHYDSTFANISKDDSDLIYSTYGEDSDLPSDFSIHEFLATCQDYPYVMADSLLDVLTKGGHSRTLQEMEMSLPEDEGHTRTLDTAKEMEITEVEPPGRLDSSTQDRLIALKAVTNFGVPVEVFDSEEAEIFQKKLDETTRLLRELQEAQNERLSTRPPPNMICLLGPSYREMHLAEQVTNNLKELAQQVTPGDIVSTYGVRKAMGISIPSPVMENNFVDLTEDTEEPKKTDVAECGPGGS
UniProt Q4VC05: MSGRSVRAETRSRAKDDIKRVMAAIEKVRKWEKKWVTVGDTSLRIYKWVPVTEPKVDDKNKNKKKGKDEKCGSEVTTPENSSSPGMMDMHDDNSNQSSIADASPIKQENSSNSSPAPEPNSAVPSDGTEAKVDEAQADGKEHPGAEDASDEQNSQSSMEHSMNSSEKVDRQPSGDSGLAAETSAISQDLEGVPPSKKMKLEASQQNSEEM
UniProt Q9BQE9: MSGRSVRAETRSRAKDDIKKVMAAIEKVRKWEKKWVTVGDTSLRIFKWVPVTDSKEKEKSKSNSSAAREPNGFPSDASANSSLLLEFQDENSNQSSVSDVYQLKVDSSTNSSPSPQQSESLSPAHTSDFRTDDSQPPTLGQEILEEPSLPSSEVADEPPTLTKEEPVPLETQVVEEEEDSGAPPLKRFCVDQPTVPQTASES
UniProt Q9H8M2: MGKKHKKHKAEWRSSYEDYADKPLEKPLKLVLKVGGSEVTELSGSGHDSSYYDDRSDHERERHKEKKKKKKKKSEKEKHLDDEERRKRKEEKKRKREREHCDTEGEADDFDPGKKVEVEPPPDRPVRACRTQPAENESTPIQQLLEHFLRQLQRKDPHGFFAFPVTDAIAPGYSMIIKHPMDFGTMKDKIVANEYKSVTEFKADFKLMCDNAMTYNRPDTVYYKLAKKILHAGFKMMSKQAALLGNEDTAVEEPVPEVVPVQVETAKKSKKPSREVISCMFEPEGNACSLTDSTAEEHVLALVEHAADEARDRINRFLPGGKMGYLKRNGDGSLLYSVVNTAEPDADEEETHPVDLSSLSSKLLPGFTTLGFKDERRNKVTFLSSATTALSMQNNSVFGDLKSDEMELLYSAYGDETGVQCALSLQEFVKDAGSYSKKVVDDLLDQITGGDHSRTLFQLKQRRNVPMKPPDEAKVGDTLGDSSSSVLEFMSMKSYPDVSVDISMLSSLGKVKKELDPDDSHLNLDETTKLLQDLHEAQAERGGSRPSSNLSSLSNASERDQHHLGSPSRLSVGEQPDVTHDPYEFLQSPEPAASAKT
UniProt Q9NZM4: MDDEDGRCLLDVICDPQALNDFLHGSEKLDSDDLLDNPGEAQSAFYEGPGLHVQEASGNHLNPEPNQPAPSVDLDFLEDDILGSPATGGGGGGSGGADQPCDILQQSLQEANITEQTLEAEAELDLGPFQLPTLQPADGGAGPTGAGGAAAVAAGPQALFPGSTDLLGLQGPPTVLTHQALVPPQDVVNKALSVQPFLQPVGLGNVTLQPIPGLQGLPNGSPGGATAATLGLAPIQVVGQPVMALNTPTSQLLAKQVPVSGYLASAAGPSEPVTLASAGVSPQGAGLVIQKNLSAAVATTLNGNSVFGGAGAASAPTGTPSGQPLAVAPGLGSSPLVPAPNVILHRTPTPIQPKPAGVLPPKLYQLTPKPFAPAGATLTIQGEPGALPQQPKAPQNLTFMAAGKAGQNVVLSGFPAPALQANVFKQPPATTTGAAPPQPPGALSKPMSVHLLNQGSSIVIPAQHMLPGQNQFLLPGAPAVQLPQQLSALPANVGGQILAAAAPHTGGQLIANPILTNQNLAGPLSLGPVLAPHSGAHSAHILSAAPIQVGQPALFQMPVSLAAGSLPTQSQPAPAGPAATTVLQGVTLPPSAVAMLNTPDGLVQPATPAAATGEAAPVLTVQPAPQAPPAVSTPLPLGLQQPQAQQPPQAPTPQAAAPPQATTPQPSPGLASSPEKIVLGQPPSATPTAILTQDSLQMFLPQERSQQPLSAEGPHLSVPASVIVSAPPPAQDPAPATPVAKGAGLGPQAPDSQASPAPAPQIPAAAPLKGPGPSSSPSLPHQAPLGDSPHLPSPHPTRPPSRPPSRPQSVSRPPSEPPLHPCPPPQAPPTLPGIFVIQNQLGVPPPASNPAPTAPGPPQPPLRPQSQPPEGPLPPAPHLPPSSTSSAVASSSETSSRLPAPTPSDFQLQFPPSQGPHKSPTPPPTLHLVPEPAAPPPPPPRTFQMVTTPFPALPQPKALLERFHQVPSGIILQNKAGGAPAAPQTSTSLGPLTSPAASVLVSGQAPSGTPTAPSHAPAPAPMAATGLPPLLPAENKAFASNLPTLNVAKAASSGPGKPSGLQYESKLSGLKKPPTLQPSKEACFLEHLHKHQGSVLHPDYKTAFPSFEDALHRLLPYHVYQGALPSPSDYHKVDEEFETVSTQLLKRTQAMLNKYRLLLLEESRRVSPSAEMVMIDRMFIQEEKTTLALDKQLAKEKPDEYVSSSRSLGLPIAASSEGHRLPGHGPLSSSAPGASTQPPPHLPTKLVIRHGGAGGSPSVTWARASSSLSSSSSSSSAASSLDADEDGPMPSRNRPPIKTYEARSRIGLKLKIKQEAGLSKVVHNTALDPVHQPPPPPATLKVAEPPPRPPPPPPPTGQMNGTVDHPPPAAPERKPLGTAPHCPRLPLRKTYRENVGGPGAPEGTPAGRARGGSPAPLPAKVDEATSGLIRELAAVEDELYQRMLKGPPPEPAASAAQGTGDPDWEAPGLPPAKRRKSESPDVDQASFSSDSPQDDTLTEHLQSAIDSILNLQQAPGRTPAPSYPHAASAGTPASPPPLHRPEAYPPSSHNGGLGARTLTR
UniProt Q8TAQ2: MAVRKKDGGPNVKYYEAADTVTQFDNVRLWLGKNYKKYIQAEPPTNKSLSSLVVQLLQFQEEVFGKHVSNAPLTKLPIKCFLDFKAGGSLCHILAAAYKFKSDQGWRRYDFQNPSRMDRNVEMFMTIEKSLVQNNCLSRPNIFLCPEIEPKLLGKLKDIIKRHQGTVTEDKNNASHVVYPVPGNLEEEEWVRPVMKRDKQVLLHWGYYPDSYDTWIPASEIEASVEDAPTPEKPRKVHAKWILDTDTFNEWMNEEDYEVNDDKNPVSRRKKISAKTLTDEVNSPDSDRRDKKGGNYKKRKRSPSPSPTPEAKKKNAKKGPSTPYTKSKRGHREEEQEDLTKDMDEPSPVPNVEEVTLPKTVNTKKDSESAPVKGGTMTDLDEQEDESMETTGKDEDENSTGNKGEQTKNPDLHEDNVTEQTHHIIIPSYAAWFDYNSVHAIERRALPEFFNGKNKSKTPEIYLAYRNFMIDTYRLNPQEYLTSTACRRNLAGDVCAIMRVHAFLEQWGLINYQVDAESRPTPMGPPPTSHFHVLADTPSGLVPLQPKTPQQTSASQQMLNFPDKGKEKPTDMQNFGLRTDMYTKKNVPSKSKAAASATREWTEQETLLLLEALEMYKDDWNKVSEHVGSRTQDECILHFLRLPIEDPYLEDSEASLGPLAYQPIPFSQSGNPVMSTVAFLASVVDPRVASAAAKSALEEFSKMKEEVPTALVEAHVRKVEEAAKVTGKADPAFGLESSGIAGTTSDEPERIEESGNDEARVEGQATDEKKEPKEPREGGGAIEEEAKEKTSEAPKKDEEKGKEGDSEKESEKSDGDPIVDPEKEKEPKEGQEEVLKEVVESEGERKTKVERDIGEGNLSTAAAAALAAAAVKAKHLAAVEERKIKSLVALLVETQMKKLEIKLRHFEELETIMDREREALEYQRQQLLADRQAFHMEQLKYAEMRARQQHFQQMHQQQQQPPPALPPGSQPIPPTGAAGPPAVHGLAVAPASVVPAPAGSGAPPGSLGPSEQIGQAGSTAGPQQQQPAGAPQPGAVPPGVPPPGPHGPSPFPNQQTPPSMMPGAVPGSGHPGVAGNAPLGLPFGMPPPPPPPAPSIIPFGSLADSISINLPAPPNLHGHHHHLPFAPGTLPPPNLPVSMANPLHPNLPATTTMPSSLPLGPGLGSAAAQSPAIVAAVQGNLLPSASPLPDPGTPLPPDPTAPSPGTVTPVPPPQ
UniProt O75177: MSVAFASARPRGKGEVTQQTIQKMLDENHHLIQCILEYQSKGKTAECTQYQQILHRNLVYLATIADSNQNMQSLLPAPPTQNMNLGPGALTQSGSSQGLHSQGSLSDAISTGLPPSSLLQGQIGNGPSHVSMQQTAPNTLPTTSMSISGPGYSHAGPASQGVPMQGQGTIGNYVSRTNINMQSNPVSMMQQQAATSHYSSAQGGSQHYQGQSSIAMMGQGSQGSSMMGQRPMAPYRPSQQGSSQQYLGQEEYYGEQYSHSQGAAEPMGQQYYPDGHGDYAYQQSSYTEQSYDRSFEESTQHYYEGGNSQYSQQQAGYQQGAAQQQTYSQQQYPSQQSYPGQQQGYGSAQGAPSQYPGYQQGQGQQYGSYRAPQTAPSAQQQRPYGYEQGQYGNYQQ

Each substance was assayed against BRM (encoded by SMARCA2) (human (endogenous in HEK293T, RH4)) (UniProt P51531) (assay: affinity purification with mass spectrometry; SEC-IP-LCMS: 1-2 megadalton SEC fractions (16-18) of ammonium sulfate precipitated nuclear extracts of RH30 and RH4 cells, diluted 1:1 in SEC-IP buffer; 3 µg BRG1, PBRM1 (results also: BRM) or non-specific IgG antibody, ~16 h 4 °C; Protein A Dynabeads 4 h; on-bead trypsin digestion, LCMS).

Row | binding | Substance
1 | binds | PBRM1 (from UniProt Q86U86 1-1689)
2 | binds | SMARCD2 (from UniProt Q92925 1-531)
3 | binds | SMARCE1 (from UniProt Q969G3 1-411)

These substances were tested against PBRM1 (human (endogenous in HEK293T, RH4, RH30)) (UniProt Q86U86) in the same assay as above.

Row | binding | Substance
4 | binds | BRD7 (from UniProt Q9NPI1 1-651)

The substances below were run against BRG1 (encoded by SMARCA4) (human (endogenous in HEK293T, RH4, RH30)) (UniProt P51532) in the same assay as above.

Row | binding | Substance
5 | binds | BCL7A (from UniProt Q4VC05 1-210)
6 | binds | BCL7B (from UniProt Q9BQE9 1-202)
7 | binds | BCL7C (from UniProt Q8WUZ0 1-217)
8 | binds | BRD9 (from UniProt Q9H8M2 1-597)
9 | binds | DPF2 (from UniProt Q92785 1-391)
10 | binds | GLTSCR1 (from UniProt Q9NZM4 1-1560)
11 | binds | SMARCC2 (from UniProt Q8TAQ2 1-1214)
12 | binds | SMARCD2 (from UniProt Q92925 1-531)
13 | binds | SMARCD3 (from UniProt Q6STE5 1-483)
14 | binds | SS18L1 (from UniProt O75177 1-396)
